Values from PubChem BioAssay AID1053208 (Peter MacCallum Cancer Centre, 2014).
Screen: 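Find knock-downs that sensitise mouse osteosarcoma cells to doxorubicin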 (primary screen). System: mouse osteosarcoma cells, early-passage culture from an engineered mouse model of fibroblastic bone tumour. Reagent: siRNA pool against mouse genes, 40 nM. Time to read-out: about 120 h (48 h before drug, then 72 h with drug). Treatment: doxorubicin 100 nM for 72 h, roughly 30-40% inhibitory dose. Measured: 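Luminescent ATP signal taken as viability with or without 100 nM doxorubicin for 72 h; mean of two wells set against non-targeting siRNA and turned into robust z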. Reading the numbers: viability z-score with doxorubicin: higher = more viable cells under doxorubicin; viability z-score without drug: higher = more viable cells with knock-down alone; z-score of drug to no-drug ratio: higher = less drug sensitisation by knock-down. Call rule: 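a pool counts as active when its viability z-score with doxorubicin is -2 or below and its z-score without drug lies between -2 and 2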.
Here is a random part of about 17,000 deposited reagents. Over the whole deposit, 788 (4.7%) got an active call. 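Calls rest on z-score classes alone; an extra cut-off of viability at most 70% of control was not applied to them.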 Not all columns of the deposit are shown.

gene knocked down | combined z-score class | viability z-score with doxorubicin | viability z-score without drug | z-score of drug to no-drug ratio | activity call
Prr9 | no change with or without drug | -0.45 | 0.51 | -0.67 | inactive
Trim30a | high cell count with and without drug | 4.05 | 2.02 | 2.59 | inactive
Pstk | no change with or without drug | 1.12 | 1.52 | 0.22 | inactive
Rtkn | high cell count without drug only | 1.57 | 2.36 | 0.11 | inactive
Sirt3 | no change with or without drug | 0.34 | 0.17 | 0.34 | inactive
Ndrg3 | no change with or without drug | -0.67 | -1.18 | 0.22 | inactive
Spats2l | no change with or without drug | -0.45 | -0.84 | 0.22 | inactive
Ercc2 | no change with or without drug | -0.11 | -1.01 | 0.67 | inactive
Pbld2 | no change with or without drug | 1.57 | 0.17 | 1.69 | inactive
Or6n2 | no change with or without drug | 0.56 | -0.17 | 0.79 | inactive
Fam241b | no change with or without drug | -0.22 | 0.51 | -0.45 | inactive
Sack1a | no change with or without drug | -1.24 | -0.84 | -0.67 | inactive
Enpep | no change with or without drug | 0.22 | 0.84 | -0.22 | inactive
Lsm12 | no change with or without drug | -1.69 | -0.34 | -1.46 | inactive
Hspbap1 | no change with or without drug | -1.35 | -0.67 | -0.9 | inactive
Ehbp1l1 | no change with or without drug | -0.9 | -0.67 | -0.34 | inactive
Nln | low cell count without drug only | 0.56 | -2.19 | 2.59 | inactive
Or8b1c | no change with or without drug | -0.22 | 1.01 | -0.79 | inactive
Zfp523 | no change with or without drug | 1.01 | 0.84 | 0.56 | inactive
Gtf2b | no change with or without drug | -0.67 | 0 | -0.56 | inactive
Parp3 | no change with or without drug | 1.12 | 0.51 | 0.9 | inactive
Trim16 | no change with or without drug | 0 | 1.85 | -1.01 | inactive
Hgd | no change with or without drug | -0.22 | 0.84 | -0.67 | inactive
Kcna4 | no change with or without drug | -0.9 | -0.51 | -0.56 | inactive

5 entries already listed, ordered by “viability z-score without drug”, descending:
gene knocked down | combined z-score class | viability z-score with doxorubicin | viability z-score without drug | z-score of drug to no-drug ratio | activity call
Rtkn | high cell count without drug only | 1.57 | 2.36 | 0.11 | inactive
Pstk | no change with or without drug | 1.12 | 1.52 | 0.22 | inactive
Sirt3 | no change with or without drug | 0.34 | 0.17 | 0.34 | inactive
Spats2l | no change with or without drug | -0.45 | -0.84 | 0.22 | inactive
Ndrg3 | no change with or without drug | -0.67 | -1.18 | 0.22 | inactive

The list goes on.
gene knocked down | combined z-score class | viability z-score with doxorubicin | viability z-score without drug | z-score of drug to no-drug ratio | activity call
A330041J22Rik | no change with or without drug | 0.56 | -1.69 | 2.02 | inactive
Gdf5 | no change with or without drug | -1.12 | -0.51 | -0.79 | inactive
Atp13a5 | high cell count with and without drug | 2.59 | 3.71 | 0.22 | inactive
Samt4 | no change with or without drug | -0.67 | 1.01 | -1.24 | inactive
AI661453 | low cell count without drug only | -1.35 | -2.02 | 0.11 | inactive
Slc7a13 | no change with or without drug | 0.67 | 0.34 | 0.56 | inactive
Srek1ip1 | no change with or without drug | -1.12 | -0.84 | -0.56 | inactive
Or4a72 | no change with or without drug | 0.45 | -0.51 | 1.01 | inactive
Ccdc40 | no change with or without drug | 0.9 | 0.17 | 0.9 | inactive
Emc7 | no change with or without drug | 1.24 | 0.84 | 0.79 | inactive
Pigv | no change with or without drug | -1.8 | -1.18 | -1.01 | inactive
Wnk4 | no change with or without drug | 0.45 | -1.85 | 2.14 | inactive
Sbf2 | no change with or without drug | -1.12 | -0.17 | -1.01 | inactive
Or5w1 | no change with or without drug | -0.67 | -0.17 | -0.45 | inactive
Abcb9 | no change with or without drug | 0 | -0.51 | 0.45 | inactive
Creb3 | no change with or without drug | -0.9 | -0.17 | -0.79 | inactive
Mns1 | no change with or without drug | -0.9 | -1.18 | 0 | inactive
Or4c3 | no change with or without drug | -0.34 | 0 | -0.22 | inactive
Syt3 | no change with or without drug | 0.45 | -1.85 | 2.14 | inactive
Parg | no change with or without drug | -0.34 | 0.51 | -0.56 | inactive
Grhl2 | low cell count with doxorubicin only | -2.36 | -0.34 | -2.25 | active
Dynlt5 | no change with or without drug | -0.67 | 0.84 | -1.12 | inactive
Or1ab2 | no change with or without drug | 0 | -0.17 | 0.22 | inactive
H3c7 | no change with or without drug | -0.45 | 0.17 | -0.45 | inactive
Vmn1r89 | no change with or without drug | -0.67 | 0.51 | -0.9 | inactive
Hdgf | no change with or without drug | -0.45 | 0.34 | -0.56 | inactive
